## Primary screen of a compound library

Data taken from ChEMBL document CHEMBL3988442, “University of Dundee, Small-Polar-MMV Screening Library” (2021).

A: 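Whole-parasite assay of Trypanosoma brucei over 72 hours; the read-out is not stated. Concentration: 30 µM. Direction is inferred from retests: higher values go with stronger inhibition. Values scatter widely below zero; nearly all retest evidence comes from the higher of the two concentrations used. Size under these conditions: about 64,000 compounds, about 940 of them at 50% or above in at least one test.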
B: 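Assay of Toxoplasma gondii numbers, read through their beta-galactosidase reporter with a colour substrate. Tested at 10 µM. Higher reads as fewer parasites (inferred from which compounds were picked for retests). Size under these conditions: about 67,000 compounds, about 260 of them at 50% or above in at least one test.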

The filed quantity is “Percent Effect” (%). The record does not define 0% and 100%; most values in the screen are far below 50% and negative numbers occur (in some assays of this library far below -100). Compounds were drawn at random from those tested, without regard to their results. A dash means the value is not listed here; it may have been measured.

| compound | A | B |
|---|---|---|
| `COc1c(CNCc2cccnc2OC2CCCC2)c(C)nn1C` | -9.361 | 4.11 |
| `O=C(O)C(F)(F)F.O=C(O)C(F)(F)F.[H][C@@]12COC[C@]1(COCc1ccncc1)CN(Cc1ccccc1OC)C2` | 59.56 | -10.88 |
| `COc1cc2nc(NCCN3CCNC3=O)cc(C)c2cc1OC` | 57.38 | -33.15 |
| `Cc1cccc(OCCC(=O)NC(C)c2nnc3n2CCC3)c1` (stereo unspecified) | -22.53 | 34.17 |
| `Cc1cc(C)c2c(OCC(=O)NC(C)C)nn(C)c2n1` | -2.484 | -2.424 |
| `O=C(c1cccs1)N1CC(C(=O)N2CCCC2)C2(CCOCC2)C1` (stereo unspecified) | 17.49 | 5.788 |
| `NC(=O)CC1CCCN(C(=O)NCC2(c3cccs3)CCCC2)C1` (stereo unspecified) | -2.698 | 5.08 |
| `Cc1oc(C)c(C(=O)NCc2ccccc2S(=O)(=O)N(C)C)c1C` | -26 | -19.62 |
| `COC(=O)NCCCn1ccnc1-c1ccccc1` | -2.982 | -4.399 |
| `Cc1nc(CN(C)C2CCN(Cc3cccc4cccnc34)C2)no1` (stereo unspecified) | -78.21 | 19.67 |
| `O=C(NCCC1COc2ccccc2O1)c1ccc(-c2cn[nH]c2)nc1` (stereo unspecified) | 81.06 | -41.35 |
| `Cn1c(N)c2c(=O)n(C)c(-c3ccc(Cl)cc3Cl)cc2c(C#N)c1=O` | -26.15 | 25.21 |
| `COc1ccc(C(=O)COc2coc(CN3CCCCC3)cc2=O)cc1` | -8.283 | -4.406 |
| `[H][C@]12CC[C@@]3(N=C(c4ccccc4)NC3=O)[C@@]1([H])CN(Cc1cccnc1)C2` | -0.8654 | 3.695 |
| `CCc1noc(CN(C)CCC(=O)Nc2ccc(C#N)c(Cl)c2)n1` | -27.6 | 10.9 |
| `O=C(O)C(F)(F)F.c1cnc(NCc2nnn3c2CN(Cc2ccsc2)CCC3)nc1` | -18.13 | 11.26 |
| `Cl.O=C(NCC1CCCO1)c1cc(-c2ccncc2)c2cnccc2n1` (stereo unspecified) | -19.01 | -13.25 |
| `CC(C)N1CC(C(=O)NCc2ccc(S(=O)(=O)N(C)C)cc2)CC1=O` (stereo unspecified) | 4.098 | -3.359 |
| `COc1cc(CNc2ccccc2Cl)ccc1OCC(=O)O` | -45.51 | 1.937 |
| `NCc1cnn(-c2ccccc2C(=O)NCCc2ccncc2)c1` | 9.731 | 7.893 |
| `CC(C(=O)Nc1cccc(F)c1)N(C)CCN1CCOCC1` (stereo unspecified) | -49.78 | -34.41 |
| `Cc1cnc(CC2COCCN(C(=O)CN3CCOCC3)C2)cn1` (stereo unspecified) | -13.65 | -18.24 |
| `O=C(O)C(F)(F)F.c1ccc(CN2Cc3[nH]nc(COCC4CC4)c3C2)nc1` | -26.85 | 7.874 |
| `O=C(O)C(F)(F)F.O=C(O)C(F)(F)F.[H][C@@]12CCN(C(=O)C(C)C)CC[C@]1(C(=O)Nc1cccnc1)CCN2C` | -93.75 | -26.54 |
| `Cc1ccc(OCC(C)NS(=O)(=O)Cc2ccon2)cc1` (stereo unspecified) | -18.92 | -13.04 |
| `CCSC(C)c1nc(-c2ccc(C)nn2)no1` (stereo unspecified) | -49.1 | 1.095 |
| `O=C1NC2(CCN(C/C=C/c3ccccc3)CC2)CC1c1ccccc1` (stereo unspecified) | - | 2.892 |
| `FC(F)(F)CCN(Cc1ccon1)C1CCCC1` | -36.42 | 3.483 |
| `CCN(CC1CCCN(CCc2cccc(OC)c2)C1)C(=O)CCSC` (stereo unspecified) | -27.61 | -44.07 |
| `[H][C@]12CC(COCC)C[C@]1([H])N(C(=O)c1ccc[nH]1)CCO2` (stereo partly specified) | -36.98 | -1.78 |
| `CC(=O)N1CCCC2(CCN(c3nncs3)C2)C1` (stereo unspecified) | -33.62 | -31.67 |
| `Cc1cccnc1N1CCN(Cc2cc(O)c3cccc(F)c3n2)CC1` | -10.15 | -0.4764 |
| `[H][C@@]12CCN(C[C@@H]1CN1CCCCC1)[C@@H](CNS(=O)(=O)c1ccccc1)C2` | -19.15 | 8.366 |
| `CCNc1cc2c(nn1)CCN(C(=O)Cc1ccc(C)s1)C2` | -16.34 | 20.14 |
| `CN(C)c1cc(C(=O)N2CCCC2)ccn1` | 11.48 | 3.599 |
| `O=C(Cc1csc(-c2ccccc2)n1)N[C@@H](C(=O)O)c1ccccc1` | - | -12.28 |
| `CS(=O)(=O)N1CCC(C(=O)Nc2nnc(C(F)(F)F)[nH]2)CC1` | -45.68 | -3.329 |
| `CC(C)(Oc1ccc2c(c1)CCCC2=O)C(=O)NCc1ccco1` | -45.91 | 1.294 |
| `CCn1nc(C)c(CCn2ccnc2-c2cc3n(n2)CCNC3)c1C` | -84.36 | 5.915 |
| `CCOC(C)c1nc(Cn2cc(C(=O)NC)ccc2=O)cs1` (stereo unspecified) | -79.09 | -1.115 |
| `NC(=O)c1csc(N2CCCC(c3n[nH]c(=O)n3-c3ccccc3)C2)n1` (stereo unspecified) | -3.861 | 3.59 |
| `Cn1cc(C(=O)CC2CCCN2C(=O)c2ccc(Cl)o2)cn1` (stereo unspecified) | -45.89 | -7.191 |
| `CCN1CCN(C(=O)c2cc(NC(=O)c3ccccc3)n(C)n2)CC1` | -16.21 | -3.056 |
| `Cc1cc(C)n(C2CCN(C(=O)CN3C(=O)CSc4ccccc43)C2)n1` (stereo unspecified) | -21.02 | -12.11 |

The first 3 entries again:

- COc1c(CNCc2cccnc2OC2CCCC2)c(C)nn1C : A: -9.361%; B: 4.11%
- O=C(O)C(F)(F)F.O=C(O)C(F)(F)F.[H][C@@]12COC[C@]1(COCc1ccncc1)CN(Cc1ccccc1OC)C2 : A: 59.56%; B: -10.88%
- COc1cc2nc(NCCN3CCNC3=O)cc(C)c2cc1OC : A: 57.38%; B: -33.15%